Consider 69 sequences from PubChem BioAssay AID1508600 (Functional Genomics Laboratory (NCATS/FGL), 2020).

Among all 53,000 sequences or so, about 3,700 (7%) were called active.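 How the source made its calls: active means gene knockdowns whose robust z-score for IL-1 alpha signal is at least 2 or at most -2, so actives lie on both sides; inactive means the rest.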 This is one part of the list.

This test in a line: Components of the Cytosolic LPS Sensing Pathway: Gene Identification via Genome-wide siRNA Screen.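 Further: robust z of the log signal after scaling to non-targeting control siRNA wells of the plate.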 The settings on record: RAW264.7 macrophages, IL-1a HTRF, actives lie on both sides, screened at 100 nM (by protocol), cells primed 5 h with Pam3CSK4 first. A digest of the protocol:
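Using IL-1a HTRF as read-out, the screen measured release from RAW264.7 cells after 48h siRNA knockdown (100 nM), 5 h Pam3CSK4 priming and 24 h cytosolic LipidA. Values were expressed relative to negative-control wells as robust z-scores.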
As to CCAAUGGCGAGACAACUACTT against Aldoa, the z-score is inactive: 0.182.

For CCAGGUGGGAUAAAUUGAATT against Rpusd4, the z-score is inactive: -1.46.

For GGAAGUGGAAUAUGUCACCTT against Cd300lf, the z-score is inactive: -0.206. The result for CCAAUUGUACCUUAUCUGGTT against Tnfrsf4 reads inactive: 0.066.

Regarding CGGACUUUCCCGGUAACUATT against Polr1c, the z-score is inactive: -1.32. For GGAAAUCAGAGAGAGGUAUTT against Kank1, the z-score is inactive: 0.132. Regarding GCAGGAUUUUCACCAACAGTT against Gh, the z-score is inactive: -0.215. As for GGAAUGCUUACACACCUCATT against Galns, the z-score was inactive: 0.742.

Take CGGAACAAUUCCAAGAAACTT against Isl2: the z-score is inactive: 0.716. Take GGAUCACAGUCUCUUCGGUTT against Fgf20: the z-score was inactive: 0.473. As for GGAGAAGUACGUUUAAAUGTT against G3bp2, the z-score was inactive: -0.736.

GCCACAGUGACUAUACUAGTT against Cdh16: the z-score is inactive: 1.02.

In the case of “CCCACAUGUCCCGUCUUAUTT against 4930429B21Rik”, the z-score is inactive: 0.276. In the case of GCAUCCUAUAAUAUGCAUGTT against Cdhr1, the z-score is inactive: 0.789.

On to GCUAGGAUAACCCAGAUUATT against Dph2, for which the z-score is inactive: -0.931.

On to GGAACUGGCCAAUUACUACTT against Rdm1, for which the z-score is inactive: -1.29.

Take GCUGAGAGUUAAUUGAGCATT against Abcg8: the z-score was inactive: 0.0952. As to GCCAUAUACAGGUUCAAAGTT against Msh6, the z-score is inactive: 0.89.

Turning to GGAUGUUACGAAGAAGAUUTT against Ash1l, the z-score was inactive: -0.664. The result for “CGAAGAUUACCUUUCAAGATT against St6galnac3” reads inactive: 0.371; that for GGAUGAACCAAACCAAUAATT against Mgat4d, active: 2.24; that for GGGAGAAAAAAUCCACGAGTT against Tubg1, inactive: -0.0892. With GGACUCCUUAGAGAAACUUTT against Prl2b1, the z-score was inactive: -0.0889. With GGUCGAGCCAAGAAUUUGUTT against Pigo the figure was inactive: 1.52; with GGCAUAUACAAGGUAUUCUTT against Olfr393, inactive: -0.22; with GUUUGAGUCUGGAGACGUGTT against Commd4, inactive: 0.917.

Take GGAUAACUCAUUCAGAAUGTT against Capn7: the z-score was inactive: 0.476. With CGGCAACUCAACAAGCUUATT against Cbfa2t3 the figure was active: 2.38; with GGAGCUAGUAUUGAGCAACTT against Rnh1, inactive: 1.48; with GGCAUAUCAACUUUCUCGATT against Oca2, inactive: -0.373.

Consider GCACCCAUAAGUUCUUAUATT against Hif1an, for which the z-score was inactive: 0.258. As to CCUGAUGCGUUACAACAACTT against Tmem222, the z-score is inactive: -0.74. The result for CCUUCAUUGGUUAGCAUGUTT against Rbl2 reads inactive: -0.424; that for GGACAAUAUAGGAUCAACATT against Kmo, inactive: -0.155. GCUCUCGUCACUGUGUUACTT against Paip2: the z-score is inactive: 0.906.

On to GGUGAAGUCUUACCUAUACTT against Aacs, for which the z-score is inactive: -0.598.

As to GGAUCUUGUGUUGUAUAAATT against Etv3, the z-score is inactive: 0.303.

With CCUAUGGCCGACGAUCAUGTT against Cyp2c23, the z-score is inactive: 1.15. Consider GCUGGAAUAUAGGAAUGUCTT against Pex11g, for which the z-score was inactive: -0.0512. As for CCGAUCAAUGGAUUGUUUUTT against Mettl9, the z-score was inactive: 0.644. Take CCUGUGUUCUGACCUAGAGTT against Hes6: the z-score was inactive: -1.88.

Regarding GGAAAAGCUACAUUACUUCTT against Trim31, the z-score is inactive: 0.785. For GGCUCUAAAGAGACACCUUTT against Olfr498, the z-score was inactive: 0.0154.

On to CGGCUACCAAUCCAAGACATT against Marchf6, for which the z-score was inactive: 0.4. As to GGGACGGAGAAAAGCUUUUTT against Olfr419, the z-score is active: 3.92.

Take GCCGACCACAGUACAAGACTT against Bivm: the z-score was inactive: 1.08. With GGCUCUAAUGUAAUGAAUCTT against Fgf10 the figure was inactive: 0.259; with CCUCAUUCUGUAAAAGAGATT against Hpcal4, inactive: 0.33. Regarding GGCAGUGAGUGAGUCACAGTT against Ankfn1, the z-score is inactive: -1.69. Consider GCAAAACCUAACUAUGUUUTT against Mterf3, for which the z-score is inactive: -0.879. With GGACUGUUAACUCUUGGCGTT against Slc7a1 the figure was inactive: -1.16.

Turning to GAUCCACCCAUCCUACUGUTT against Rd3, the z-score was inactive: 0.0984.

CCAACACAUACCAACAGGUTT against Rbm42: the z-score is inactive: -0.984. With CCUGUCCUGAUGGUGAAACTT against Serpinb3c, the z-score was inactive: 0.619. Consider GCCGUUUAUUCAUUGCACUTT against Cdc123, for which the z-score was inactive: 1.21.

For CCGUGAUAAUGUAACACCUTT against Prtg, the z-score was inactive: 0.0383. As to GGGUUGUUCCAAAUGCUAGTT against Skp1, the z-score is inactive: -0.65. Regarding GCUAUUGUAACACCUCAGGTT against Lef1, the z-score was inactive: -0.899. Turning to GCCUGUCACUUUCUGAUAATT against Tpm2, the z-score was inactive: 1.15. Consider GGCUGCUGUUAACAAGCUGTT against Wdr13, for which the z-score was active: -2.41. As for CGGAAUCUAGGCUUGUGCATT against Timp1, the z-score is inactive: -0.661. In the case of GGCAUCCUGUGUUUUAACUTT against Mmp3, the z-score was inactive: 0.25. In the case of GGACACAAGCCUAUUCCAATT against Rffl, the z-score is inactive: 1.59. As for GCUAGGACUACAGCUGGGATT against Snrnp48, the z-score is active: -2.56.

CCCUGUACACAGAAGGACATT against Dolk: the z-score was inactive: -0.857. Consider GCAUUCAUCAGGGUUGAUUTT against Wdr20, for which the z-score was active: -2.43. In the case of GCACAAAUAAAGAUAAGAGTT against Uox, the z-score was inactive: -0.178. Consider GCCCUCGUUCAUACCGUAUTT against Olfr332, for which the z-score was inactive: 0.527. Consider GGACAGACAAAUACAAGAGTT against Tmco1, for which the z-score was inactive: 0.428.
